The list is a part of this screen's results and no random one: it gathers tests that were run many times, whatever their T/C, doses with no T/C, and many T/C values between a quarter and a half above the control. Further doses and runs are listed elsewhere. T/C gives the treated animals as a percentage of the vehicle group. Some doses have a count of surviving animals in place of a T/C: the source files T/C as zero there, which appears to mark a toxic dose or a test without result, not a measured value. Some survivor counts are full or nearly so, which does not show that the dose was tolerated: survival well below the control is almost never listed, so the zero probably covers shortened survival too. Survivors were counted at the toxicity check, usually on the fifth day, unless a day is given; later deaths do not show. Schedule codes are those of the source, read here as Q, the interval in days (D) or hours (H), X, the number of doses.
Test system: L1210 leukemia ip in BDF1 mice, survival T/C
Experiment: NCI In Vivo Anticancer Drug Screen. Data for tumor model L1210 Leukemia (intraperitoneal) in B6D2F1 (BDF1) mice
Conditions: T/C endpoint: mean survival time, higher T/C = longer survival
[1] = dose: 400.0 mg/kg/injection, schedule: Q04DX003 (ip), vehicle: saline with Tween-80
[2] = dose: 400.0 mg/kg/injection, schedule: Q01DX001 (ip), vehicle: saline
[3] = dose: 400.0 mg/kg/injection, schedule: Q04DX002 (ip), vehicle: Klucel (hydroxypropylcellulose) (HPC)

CC1(C)N=C(N)N=C(N)N1c1ccc(CC(C(=O)Nc2cccc(S(=O)(=O)F)c2)c2ccccc2)cc1 (stereo not drawn)
survivor count (dose: 175.0 mg/kg/injection, schedule: Q01DX001 (ip), vehicle: saline): 3 of 6
survivor count (dose: 350.0 mg/kg/injection, schedule: Q01DX001 (ip), vehicle: saline): 0 of 6

COC1OC2COC(c3ccccc3)OC2C(OS(=O)(=O)c2ccc(C)cc2)C1OS(=O)(=O)c1ccc(C)cc1 (stereo not drawn)
survivor count [1]: 6 of 6

N#CCC[P+](c1ccccc1)(c1ccccc1)c1ccccc1
survivor count [2]: 1 of 6

CCN(CC)CCCNC(C)=O
survivor count (dose: 400.0 mg/kg/injection, schedule: Q01DX009 (ip), vehicle: saline): 6 of 6

CCCCCCCCCN1CCCC(OC(=O)N(C)C)C1 (stereo not drawn)
survivor count (dose: 200.0 mg/kg/injection, schedule: Q04DX002 (ip), vehicle: saline): 1 of 3
survivor count (dose: 400.0 mg/kg/injection, schedule: Q04DX002 (ip), vehicle: saline): 0 of 3

OC(C1COC(CBr)O1)C(O)C1COC(CBr)O1 (stereo not drawn)
survivor count [3]: 1 of 3

O=C(/C(=C\c1ccccc1)CO)c1ccccc1
survivor count (dose: 125.0 mg/kg/injection, schedule: Q01DX009 (ip), vehicle: saline with Tween-80): 5 of 6
survivor count (dose: 250.0 mg/kg/injection, schedule: Q01DX009 (ip), vehicle: saline with Tween-80): 1 of 6

Cc1cc[n+](C2CC(C)(C)c3ccccc3C2=O)cc1 (stereo not drawn)
survivor count (dose: 100.0 mg/kg/injection, schedule: Q01DX001 (ip), vehicle: Klucel (hydroxypropylcellulose) (HPC)): 3 of 6
survivor count (dose: 200.0 mg/kg/injection, schedule: Q01DX001 (ip), vehicle: Klucel (hydroxypropylcellulose) (HPC)): 0 of 6
survivor count (dose: 400.0 mg/kg/injection, schedule: Q01DX001 (ip), vehicle: Klucel (hydroxypropylcellulose) (HPC)): 0 of 6

N=C(N)SC1c2ccccc2-c2cc([N+](=O)[O-])ccc21 (stereo not drawn)
survivor count (dose: 400.0 mg/kg/injection, schedule: Q01DX005 (ip), vehicle: Klucel (hydroxypropylcellulose) (HPC)): 3 of 3
survivor count [3]: 0 of 3

Clc1ccc(-n2cnnn2)cc1
survivor count [2]: 3 of 6

c1ccc(CNc2cnccn2)cc1
survivor count [2]: 2 of 4

Nc1nc(N)c(CCCc2ccccc2)c(N)n1
survivor count (dose: 50.0 mg/kg/injection, schedule: Q04DX002 (ip), vehicle: Klucel (hydroxypropylcellulose) (HPC)): 0 of 3
survivor count (dose: 200.0 mg/kg/injection, schedule: Q04DX002 (ip), vehicle: Klucel (hydroxypropylcellulose) (HPC)): 3 of 3

CCC(N)CO (stereo not drawn)
survivor count [2]: 2 of 4

CC/C(C)=N/C(=O)NN
survivor count (dose: 200.0 mg/kg/injection, schedule: Q01DX001 (ip), vehicle: saline with Tween-80): 0 of 6
survivor count (dose: 400.0 mg/kg/injection, schedule: Q01DX001 (ip), vehicle: saline with Tween-80): 0 of 6

CCCCCCCC(C(=O)O)C(CCCCCCC)C(=O)O (stereo not drawn)
survivor count (dose: 25.0 mg/kg/injection, schedule: Q01DX009 (ip), vehicle: saline): 6 of 6
survivor count (dose: 50.0 mg/kg/injection, schedule: Q04DX003 (ip), vehicle: saline): 2 of 6
survivor count (dose: 100.0 mg/kg/injection, schedule: Q04DX003 (ip), vehicle: saline): 1 of 6
survivor count (dose: 200.0 mg/kg/injection, schedule: Q04DX003 (ip), vehicle: saline): 1 of 6
survivor count (dose: 400.0 mg/kg/injection, schedule: Q04DX003 (ip), vehicle: saline): 2 of 6

CCCCCCCCC/C=C(\CCCCCCCCCC)c1cc(C)ccc1C
survivor count (dose: 25.0 mg/kg/injection, schedule: Q04DX002 (ip), vehicle: saline with Tween-80): 3 of 3
survivor count (dose: 50.0 mg/kg/injection, schedule: Q04DX002 (ip), vehicle: saline with Tween-80): 3 of 3

C[n+]1cccc(C(=O)O)c1
survivor count (dose: 400.0 mg/kg/injection, schedule: Q01DX001 (ip), vehicle: carboxymethylcellulose (CMC)): 2 of 4

CC(=O)N(C1=C(Cl)C(=O)c2ccccc2C1=O)c1ccc(Cl)cc1
survivor count (dose: 300.0 mg/kg/injection, schedule: Q01DX001 (ip), vehicle: carboxymethylcellulose (CMC)): 0 of 6

CC(C)N(CCCO)C(C)C
survivor count [1]: 0 of 6

CCN(C)c1cc2c3c(c1)CCCN3CCC2
survivor count (dose: 10.0 mg/kg/injection, schedule: Q01DX009 (ip), vehicle: saline): 3 of 6
survivor count (dose: 20.0 mg/kg/injection, schedule: Q01DX009 (ip), vehicle: saline): 1 of 6

[Cu+2].[NH-]C(CS)C(=O)O.[NH-]C(CS)C(=O)O (stereo not drawn)
survivor count (dose: 12.5 mg/kg/injection, schedule: Q04DX002 (ip), vehicle: saline with Tween-80): 3 of 3
survivor count (dose: 100.0 mg/kg/injection, schedule: Q04DX002 (ip), vehicle: saline with Tween-80): 0 of 3
survivor count (dose: 200.0 mg/kg/injection, schedule: Q04DX002 (ip), vehicle: saline with Tween-80): 1 of 3
survivor count (dose: 400.0 mg/kg/injection, schedule: Q04DX002 (ip), vehicle: saline with Tween-80): 0 of 3

From PubChem BioAssay AID248 (DTP/NCI, 2004)
